Laboratory results published in publication PMC8201173, “Inhibition of Carbonic Anhydrase IX Promotes Apoptosis through Intracellular pH Level Alterations in Cervical Cancer Cells” (International Journal of Molecular Sciences, 2021).

Assays:
Format in all cases: cell-based
Details in all cases: selectivity index
MDA-MB-231 = test: WST-1 cytotoxicity assay, MDA-MB-231
Description: (§1) We used cancer and normal cell lines purchased from ATCC (American Type Culture Collection) and ECACC (European Collection of Authenticated Cell Cultures) and stored in liquid nitrogen.
(§2) The cells were planted in 96 well plates (10^4 cells per well). […] WST-1 reactive of 10 µL was added in all wells. Following 4 h incubation, the measurements were carried out in a plate reader (Spectramax M5, BioTek, VT, USA) at wavelengths of 450 and 630 nm.

HT-29 = test: WST-1 cytotoxicity assay, HT-29
Description: as §1, §2

HeLa cells = test: WST-1 cytotoxicity assay, HeLa
Description: as §1, §2

O=c1[nH]cc(F)c(=O)[nH]1 [5-FU, 5-Fluorouracil]
SI HEK-293/MDA-MB-231 (MDA-MB-231; 24 h): 1.0 µM
SI HEK-293/MDA-MB-231 (MDA-MB-231; 48 h): 0.5 µM
SI HEK-293/MDA-MB-231 (MDA-MB-231; 72 h): 0.6 µM
SI HEK-293/HT-29 (HT-29; 24 h): 0.9 µM
SI HEK-293/HT-29 (HT-29; 72 h): 0.7 µM
SI HEK-293/HELA (HeLa cells; 24 h): >1.1 µM
SI HEK-293/HELA (HeLa cells; 48 h): 0.6 µM
SI HEK-293/HELA (HeLa cells; 72 h): 0.9 µM
